Laboratory results reported in PubChem BioAssay AID1508600 (Functional Genomics Laboratory (NCATS/FGL), 2020).
In all, about 53,000 sequences went through this assay and about 3,700 (7%) were called active.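 How the source made its calls: active means gene knockdowns whose robust z-score for IL-1 alpha signal is at least 2 or at most -2, so actives lie on both sides; inactive means the rest.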 The list shows a part of the results.

Assay: Components of the Cytosolic LPS Sensing Pathway: Gene Identification via Genome-wide siRNA Screen;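 further: robust z of the log signal after scaling to non-targeting control siRNA wells of the plate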
Settings: RAW264.7 macrophages, IL-1a HTRF, actives lie on both sides, screened at 100 nM (by protocol), cells primed 5 h with Pam3CSK4 first
Summary of the method: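 Mouse macrophage line RAW264.7 is transfected with siRNA (100 nM final), grown 48h, primed with TLR ligand Pam3CSK4 5 h and given intracellular LipidA 24 h. IL-1a in supernatant is read by HTRF and viability by luminescence.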

z-score, active:
GCCUAAAAAGAGUGGGUCATT against Mllt1 -2.73
GGAAAUGCCAUCGUCAUUUTT against Gpr1 2.66
GGCCAUUUCUAUGAAAUUATT against Olfr1016 -2
GGAUGUCUAACCCAAAUAGTT against Ly6e 2.74
GGCGAAAAGACCAGUUAUGTT against Man2c1 2.31
CCAGUUAAGCCAAACUAUGTT against Wdr5 -2.21
GGAGCUGACGUGCUACUUATT against Speg 2.6
GGCAACACUGUGGCUAAGUTT against Ankrd13d 2.74
CCAGCAGCCUUCUAACUAUTT against Hnrnpa2b1 2.14

Random excerpt: 2 entries already listed.
z-score, active:
GGCCAUUUCUAUGAAAUUATT against Olfr1016 -2
CCAGCAGCCUUCUAACUAUTT against Hnrnpa2b1 2.14

Next part.

z-score, inactive:
CGGAGAACGACAUUUACAATT against Hnrnpf 0.252
GGUGGAAUUGAAGAGUUCATT against Rcor3 0.24
GGAAUCUCUUUUCUUGCAUTT against Strip1 -0.961
GGCUCCUGAAAGAACUGGATT against Actrt2 -0.134
GCAAAGGAUAUGCAAUUGGTT against Bap1 0.257
GCUUAUCAGGGUACAGCUUTT against Ipo7 -0.06
GGUUCUUUCAGAGUUGGCCTT against Mrpl3 0.64
GGAAGUCAGGUAGUAAAACTT against Arsk -0.76
GGUAAACAUCACUCCUUGGTT against Actrt1 0.528
GGAUGCUGACAAAAAUAUCTT against Iars 0.447
GGCUGAAAAACUCAAUUAUTT against Boll -0.813
GCUUAAGGGAUAACAUAUUTT against Svs2 -0.756
GGAGAGCUAUCACAAAACATT against Olfr1018 0.417
CGUGGACUCCGUUAUCAUUTT against Sidt1 -0.942
GCUGACAAGUGUAGCGUGUTT against Wtip 0.387
GGACUGUGAUUGUUUCAGATT against Mep1a -0.0817
CCUGAGGCUCUCAAAAACGTT against Matk 0.266
GGGACCUAUUCUGUCACUGTT against Akip1 0.28
GGAUGAAGAUGACUUUGAUTT against Hnrnpul1 -1.62
GCCGAUUCUUCAAUGUGCGTT against Ribc1 -0.242
GGCCUCCUAAAAUCACAGCTT against Zfp292 -0.723
AUAUUUCUGUCUUUCCUGGTT against Olfr1222 -0.54
GGUCAAGAACCUUUAACUGTT against Pabpc1 0.648
CGAACUGGCAUUCACAUGUTT against Tas2r120 0.543
GCAGUGUGAUAAAAGAGGATT against Hmbox1 -0.635
GGAUGAGGUGAACUGAGGGTT against Tmem150b 0.777
CCCAGGUAGAUCCUAUCCUTT against Foxo4 -0.531
CCUAUAACCGGACUUAUGATT against Ctsf -0.415
GCUCAUCUGUGAAUACAAUTT against Ubr7 0.75
CGGUACAAGCUUGUGGAGCTT against Mmd2 1.42
GGACUUCAGCAAUUCCUGUTT against Stpg1 -0.244
GGCCUUCCUUUGACUUUUUTT against Cnst -0.81
GCUGACGACGCGGCCUUUCTT against Pth2 -0.444
CGAGACCUUUAUCUUGGAGTT against Unc13d -0.908
CCUCUACUCAAGUUUACUUTT against Casq2 0.417
GGAGAAUGCAAUAUCAACUTT against Osbpl9 -0.0872
GGAUUUGUUGGAAAUUGGATT against Anks1b 0.132
GGUUUCAGGCAUUAUCACATT against Tec -0.812
CCUUUCUCCUGCUAUUUUATT against Tspyl1 -0.1
GGCCAAAUCAACCAACAGCTT against Rasgrp1 -0.551
GGCAGUAGAGUCCAUCCAGTT against Maea 0.85
GGUGAGAGGCAGCUCAAGATT against Rbm41 -0.782
GGUGAACUUGAAGAAGCCUTT against Ero1a -0.789
GAAUAUUCAAGCAUUACUCTT against Olfr1302 0.291
GCUAUGAAGUUCAAAGGUCTT against Arf4 -0.556
CGGGAUAGCUGUCCUGUUATT against Mrps14 0.127
CGCAGAAGCUUAGCCAUCATT against Cog6 0.242
GGACCUUAAAUUUAGAUGGTT against Cept1 -1.8
GGCAUCAAGUCCAUUUUUGTT against Slc12a4 0.108
GGAGGAGAAAUGGAUCACATT against H2ax -1.15
CGAGAUACUCAAUAUGUGGTT against Sumf2 -0.433
CCAGAUUCGAAUAUCUAAGTT against Mrps30 0.935
GGAGUCUAAAGGAAAUGUATT against Slc22a21 0.538
GGCCAUGCCUUUGUAUGCUTT against Tbc1d25 -0.155
GGAAGUCUAAACAAAGCAATT against Ttc14 -1.73
GGAAUUAAUGGUGAAGUAUTT against Pcdhb19 -0.402
GUGACUCCAGUCGUGUCUATT against Bpifa5 -0.972
GGCAUUCUCCCUUUGGUGATT against Armc5 0.664
GGAGUUUCUUCAGUUCCUUTT against Dld 0.87
GGAGAUUGCCCUCUAUGAGTT against Prom1 -1.11
GGAGGAUGCUGACAAGGAATT against Gnat2 -0.321
CCAAUUCUACAAUCCGACATT against Tmc5 1.2
GUAUUUUACAUAAACAGGGTT against Vmn1r21 -0.856
GGAAAACUGCGUUUGGAAATT against Neil3 0.387
GGCGGAAUACCCAAAAAUATT against Cdkal1 0.193
GCCUAUGAUUUACUGGAUCTT against Oas1b 0.576
GGUGCGUAUAGCUUUCCGATT against Fbxo46 -0.866
CCAUUUGAAGGCAAAACAUTT against Zmym6 -1.87
GGAGAUCGAACUCAGCUCATT against Ciita -1.81
GUUACUGCGUGGACUGUGUTT against C730034F03Rik -0.0785
GGCACACAUCAUGUCUAAATT against Plin1 0.324
CCUCAAUCGGACCUGUAUUTT against Dstn -1.44
GAGAAACUCUGUGAAUAUATT against Zfp97 -0.451
GGAGAAGACAGCAAAGUACTT against Plpp3 -0.885
GGAAUUUGGACAAAUUGAATT against Scaf8 -1.21
GGCCCAGUCCGAUAUUCUATT against Phxr4 -0.797
GGAUCCAUAUGCUAAUCUATT against Patl1 0.783
GGAAAUUUACUCAAGAAGCTT against Trpc4ap 0.463
CGUGAGGGUCAACUUCUUCTT against Derl3 -0.128
GCUGGUCCUAUCUGUGCUUTT against Olfr1099 0.24
GGCUCAACCAAGAAAGGCUTT against 4930591A17Rik -1.28
GGAGAACAUUCAGGUGACATT against Pdgfd -0.625
CCCAAAGGGUCAAGAUAAUTT against Hmgcr -1.5
GGUCUCAGACACCUGACUCTT against Opa3 1.53
GGUUGAACAUAAGCACAAUTT against Cdkn2aip -0.42
CCUAACAUUACUGAUGAUUTT against Ice2 -0.641
CGAAAGGUAGUGCUUUCCATT against Hipk3 0.0532
GGUUUGAUGACAAAUACACTT against Spcs2 1.6
GGGUGUCAUAUCACAUAUGTT against Dpt -0.205
GGUUCUGGAAAUGGAGACUTT against Cenpp 0.0385
GGACCCAAAACUACAGCCUTT against Olfr850 0.924
GGAUUACCACAAAUCUGAATT against Ccdc7a -0.793
CCAGUAGAAAGAAUCCAGATT against Gm128 0.0855
CCUCCACUCCUAAUGAGAUTT against Cideb 0.389
GGCAUCUUCAAAUGACAUATT against Cic -1.32
GGAUCCUUCGAAUCCUGAATT against Cst11 -0.372
GGCUUACCUGGUCUACUCCTT against Wnt8b -0.95
CGAAGAUUAAUUUUGCUCATT against Lrrtm2 0.316

Not a retest: entries from further up.
z-score, inactive:
GGAUGAAGAUGACUUUGAUTT against Hnrnpul1 -1.62
GCCGAUUCUUCAAUGUGCGTT against Ribc1 -0.242
GGCCUCCUAAAAUCACAGCTT against Zfp292 -0.723
